We go through 1 molecule from publication PMC5946105.

These are yes or no findings as the source states them, for the method shown. Binding seen in cells or lysates may run through a third protein. A result given as binding can be weak or reduced; the word gives no strength.

For the test, the target named is endogenous α-actinin (human (endogenous in MCF10A)). Kind of test: co-IP; polyclonal anti-α-actinin antibody on Dynabeads Protein A; stable control MCF10A cell lysate, 500 µg total protein; 10 mM Tris-HCl pH 8.0, 150 mM NaCl, 5 mM EDTA, 0.5% Triton X-100, 60 mM N-octylglucoside; Western blot. (In general: Immunoblotting shows a protein as a band on a membrane.)

B1: flotillin-1 (protein, UniProt O75955 1-427)
chain: MFFTCGPNEAMVVSGFCRSPPVMVAGGRVFVLPCIQQIQRISLNTLTLNVKSEKVYTRHGVPISVTGIAQVKIQGQNKEMLAAACQMFLGKTEAEIAHIALETLEGHQRAIMAHMTVEEIYKDRQKFSEQVFKVASSDLVNMGISVVSYTLKDIHDDQDYLHSLGKARTAQVQKDARIGEAEAKRDAGIREAKAKQEKVSAQYLSEIEMAKAQRDYELKKAAYDIEVNTRRAQADLAYQLQVAKTKQQIEEQRVQVQVVERAQQVAVQEQEIARREKELEARVRKPAEAERYKLERLAEAEKSQLIMQAEAEAASVRMRGEAEAFAIGARARAEAEQMAKKAEAFQLYQEAAQLDMLLEKLPQVAEEISGPLTSANKITLVSSGSGTMGAAKVTGEVLDILTRLPESVERLTGVSISQVNHKPLRTA
For B1, the binding result is “binds”.
